Results are given in words; binding and its absence hold for the method and conditions named. In cells and extracts the contact can be indirect. Some results given as binding are weak or reduced against the parent protein; the word gives no strength. For some assays here: Tags and fused reporters may be left off the sequences shown.

The chains behind the UniProt entries cited, without tags or fusion partners.
UniProt Q9HAU4: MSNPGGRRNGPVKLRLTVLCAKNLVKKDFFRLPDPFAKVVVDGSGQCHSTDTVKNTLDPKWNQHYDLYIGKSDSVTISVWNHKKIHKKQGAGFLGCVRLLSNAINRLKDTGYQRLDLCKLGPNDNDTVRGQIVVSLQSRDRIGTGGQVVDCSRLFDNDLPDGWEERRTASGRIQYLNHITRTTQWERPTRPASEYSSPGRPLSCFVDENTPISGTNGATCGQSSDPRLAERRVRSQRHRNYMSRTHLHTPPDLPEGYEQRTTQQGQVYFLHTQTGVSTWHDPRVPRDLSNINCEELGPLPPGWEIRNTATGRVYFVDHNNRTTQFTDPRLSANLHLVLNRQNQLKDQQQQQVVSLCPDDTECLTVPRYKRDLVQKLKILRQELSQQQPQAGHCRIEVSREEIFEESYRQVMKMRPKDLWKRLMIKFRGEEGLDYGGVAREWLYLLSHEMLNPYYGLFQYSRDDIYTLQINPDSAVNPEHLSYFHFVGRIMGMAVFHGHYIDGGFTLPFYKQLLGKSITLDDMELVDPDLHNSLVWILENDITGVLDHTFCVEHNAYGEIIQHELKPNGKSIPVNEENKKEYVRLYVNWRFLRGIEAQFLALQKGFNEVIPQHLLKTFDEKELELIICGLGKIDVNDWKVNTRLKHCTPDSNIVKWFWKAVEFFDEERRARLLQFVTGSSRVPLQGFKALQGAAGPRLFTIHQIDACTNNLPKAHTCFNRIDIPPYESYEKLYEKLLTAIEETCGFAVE

Results on two substances are retold here after paper PMC7224386.

Assay [1] addresses T1, Myc-TRAF4 (full-length pcDNA3.1(+)-Myc-TRAF4) (human) (UniProt Q9BUZ4).
T1 sequence: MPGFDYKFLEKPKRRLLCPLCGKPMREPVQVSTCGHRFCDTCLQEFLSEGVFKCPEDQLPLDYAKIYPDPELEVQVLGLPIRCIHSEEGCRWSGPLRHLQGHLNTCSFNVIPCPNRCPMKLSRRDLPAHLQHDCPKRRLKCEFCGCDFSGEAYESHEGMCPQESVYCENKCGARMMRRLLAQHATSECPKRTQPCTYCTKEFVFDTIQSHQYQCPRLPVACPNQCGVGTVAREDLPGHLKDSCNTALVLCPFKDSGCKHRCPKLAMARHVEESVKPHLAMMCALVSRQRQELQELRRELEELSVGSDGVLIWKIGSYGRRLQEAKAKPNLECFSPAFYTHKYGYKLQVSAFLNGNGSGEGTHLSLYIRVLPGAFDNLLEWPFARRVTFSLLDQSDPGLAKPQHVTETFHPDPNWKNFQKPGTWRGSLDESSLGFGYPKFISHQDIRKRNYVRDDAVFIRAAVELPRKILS
Description: co-IP; 293T cells co-transfected with Myc-TRAF4 (wild type or deletion mutants) and Flag-Smurf2; extracts in modified RIPA buffer; immunoprecipitation with anti-Myc (reciprocal with anti-Flag for the wild type), western blot.

For assay [2], the target named is T2, TNF receptor-associated factor 4 (TRAF4), endogenous in MSCs (human (endogenous in MSCs)) (UniProt Q9BUZ4).
T2 sequence: T1 sequence
The assay is described as follows: co-IP; reciprocal co-IP/western blot of endogenous proteins from MSC extracts in modified RIPA buffer; anti-TRAF4 or anti-Smurf2 (IgG control), protein-G agarose, 4 °C. On the technique in general: In western blotting, separated proteins are transferred to a membrane and probed.

Take “Flag-Smurf2 (full-length pcDNA3.1(+)-Flag-Smurf2) (from UniProt Q9HAU4 1-748)”: the binding entry in assay [1] is “binds”.
For the substance “Smad ubiquitination-related factor 2 (Smurf2), endogenous in MSCs (from UniProt Q9HAU4 1-748)”, the binding entry in assay [2] is “binds”.
